± gives the standard deviation of the averaged measurements. The reference is the same well before dosing, and untreated signal decays as well.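 Fibroblast labels name human fibroblasts: mostly primary ones from tissues such as uterus (C12385, HUF), lung (H6013), bone (Hs27A), adrenal (HADF) and skin (WS1), plus mammary HMF and breast cancer-associated Hs343T. The cancer cells are basal-like or mesenchymal-like triple-negative breast cancer lines. The paper calls a changed response a hit when it shifts by more than 3x the replicate standard deviation. The tissue of the other fibroblasts is not given here.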
Test system: HCC1143
Test: relative JC-1 red fluorescence (viability) vs pre-drug, coculture with fibroblast (fraction); higher = more viable cancer cells
Method: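 JC-1 labelled TNBC cells cocultured 1:1 (1,500 cells each) with CellTrace Violet stained primary or stromal fibroblasts in 384-well plates in FluoroBrite medium, treated with one of 42 anticancer drugs at 0.1, 1, 10 or 100 uM. JC-1 red fluorescence (mitochondrial integrity in cancer cells only) was read by plate reader every 8 h for 72 h. Values are normalised to each well's pre-drug value. The stock of one drug was tenfold lower, so its dose labels may be too high.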

CC(C)C[C@H](NC(=O)[C@@H](COC(C)(C)C)NC(=O)[C@H](Cc1ccc(O)cc1)NC(=O)[C@H](CO)NC(=O)[C@H](Cc1c[nH]c2ccccc12)NC(=O)[C@H](Cc1cnc[nH]1)NC(=O)[C@@H]1CCC(=O)N1)C(=O)N[C@@H](CCCNC(=N)N)C(=O)N1CCC[C@H]1C(=O)NNC(N)=O [Goserelin]
relative JC-1 red fluorescence
Conditions	8 h	16 h	24 h	32 h	40 h	48 h	56 h	64 h	72 h
10 µM, coculture fibroblast: C12385	0.864 ± 0.011	0.7623 ± 0.0036	0.7 ± 0.018	0.639 ± 0.02	0.582 ± 0.022	0.535 ± 0.026	0.497 ± 0.023	0.449 ± 0.015	0.419 ± 0.018
10 µM, coculture fibroblast: H6013	0.7624 ± 0.00089	0.673 ± 0.013	0.643 ± 0.015	0.637 ± 0.022	0.553 ± 0.0089	0.538 ± 0.0069	0.504 ± 0.0026	0.4886 ± 0.0019	0.4615 ± 0.0038
10 µM, coculture fibroblast: H6019	0.8 ± 0.017	0.735 ± 0.013	0.686 ± 0.039	0.628 ± 0.061	0.594 ± 0.061	0.563 ± 0.075	0.506 ± 0.075	0.458 ± 0.081	0.422 ± 0.085
10 µM, coculture fibroblast: H6076	0.808 ± 0.031	0.844 ± 0.011	0.792 ± 0.0048	0.73822 ± 0.0002	0.6984 ± 0.0021	0.682 ± 0.00073	0.654 ± 0.0056	0.633 ± 0.013	0.643 ± 0.022
10 µM, coculture fibroblast: H6231	0.83 ± 0.028	0.836 ± 0.015	0.735 ± 0.015	0.618 ± 0.038	0.625 ± 0.061	0.588 ± 0.068	0.543 ± 0.068	0.503 ± 0.069	0.476 ± 0.069
10 µM, coculture fibroblast: HADF	0.725 ± 0.03	0.641 ± 0.032	0.607 ± 0.032	0.605 ± 0.028	0.505 ± 0.02	0.478 ± 0.025	0.443 ± 0.023	0.411 ± 0.023	0.4 ± 0.027
10 µM, coculture fibroblast: HCFa	0.795 ± 0.0048	0.6905 ± 0.004	0.636 ± 0.011	0.622 ± 0.028	0.536 ± 0.025	0.511 ± 0.032	0.463 ± 0.035	0.419 ± 0.04	0.396 ± 0.041
10 µM, coculture fibroblast: HCPF	0.8136 ± 0.0019	0.845 ± 0.02	0.784 ± 0.029	0.637 ± 0.022	0.682 ± 0.056	0.633 ± 0.061	0.599 ± 0.081	0.563 ± 0.093	0.543 ± 0.1
10 µM, coculture fibroblast: HHSteC	0.832 ± 0.017	0.762 ± 0.032	0.732 ± 0.029	0.693 ± 0.017	0.637 ± 0.043	0.616 ± 0.048	0.567 ± 0.049	0.536 ± 0.057	0.473 ± 0.04
10 µM, coculture fibroblast: HMF	0.831 ± 0.013	0.867 ± 0.036	0.776 ± 0.041	0.667 ± 0.017	0.67 ± 0.048	0.639 ± 0.044	0.588 ± 0.039	0.549 ± 0.037	0.514 ± 0.028
10 µM, coculture fibroblast: HPFa	0.913 ± 0.024	0.81 ± 0.037	0.781 ± 0.04	0.681 ± 0.028	0.629 ± 0.027	0.594 ± 0.033	0.532 ± 0.025	0.478 ± 0.031	0.435 ± 0.032
10 µM, coculture fibroblast: HUF	0.8783 ± 0.0045	0.782 ± 0.051	0.716 ± 0.051	0.638 ± 0.046	0.575 ± 0.034	0.533 ± 0.03	0.476 ± 0.022	0.433 ± 0.02	0.399 ± 0.023
10 µM, coculture fibroblast: Hs5	0.864 ± 0.011	0.874 ± 0.015	0.833 ± 0.042	0.802 ± 0.064	0.737 ± 0.053	0.704 ± 0.066	0.673 ± 0.087	0.645 ± 0.097	0.627 ± 0.1
10 µM, coculture fibroblast: Hs27A	0.691 ± 0.029	0.59 ± 0.045	0.546 ± 0.039	0.552 ± 0.039	0.421 ± 0.035	0.387 ± 0.042	0.346 ± 0.038	0.313 ± 0.043	0.306 ± 0.038
10 µM, coculture fibroblast: Hs343T	0.8024 ± 0.0076	0.836 ± 0.035	0.76 ± 0.062	0.659 ± 0.043	0.658 ± 0.068	0.614 ± 0.062	0.556 ± 0.063	0.529 ± 0.064	0.488 ± 0.054
10 µM, coculture fibroblast: WS1	0.842 ± 0.013	0.745 ± 0.0098	0.699 ± 0.018	0.63 ± 0.014	0.5793 ± 0.0051	0.534 ± 0.0075	0.484 ± 0.011	0.432 ± 0.014	0.401 ± 0.022
100 µM, coculture fibroblast: C12385	0.8468 ± 0.0042	0.751 ± 0.0098	0.697 ± 0.026	0.625 ± 0.02	0.56 ± 0.014	0.508 ± 0.015	0.461 ± 0.014	0.415 ± 0.0042	0.386 ± 0.0066
100 µM, coculture fibroblast: H6013	0.775 ± 0.012	0.713 ± 0.017	0.665 ± 0.022	0.643 ± 0.016	0.568 ± 0.029	0.551 ± 0.02	0.516 ± 0.023	0.5 ± 0.024	0.455 ± 0.03
100 µM, coculture fibroblast: H6019	0.8274 ± 0.0053	0.741 ± 0.0098	0.6958 ± 0.0024	0.6302 ± 0.0043	0.5822 ± 0.001	0.557 ± 0.011	0.5078 ± 0.0029	0.462 ± 0.005	0.4277 ± 0.0034
100 µM, coculture fibroblast: H6076	0.847 ± 0.017	0.8879 ± 0.0044	0.878 ± 0.079	0.865 ± 0.19	0.853 ± 0.15	0.855 ± 0.19	0.701 ± 0.01	0.832 ± 0.24	0.784 ± 0.2
100 µM, coculture fibroblast: H6231	0.845 ± 0.032	0.841 ± 0.05	0.7938 ± 0.0012	0.744 ± 0.064	0.722 ± 0.028	0.7 ± 0.054	0.667 ± 0.053	0.631 ± 0.051	0.606 ± 0.06
100 µM, coculture fibroblast: HADF	0.782 ± 0.0097	0.7249 ± 0.0017	0.693 ± 0.02	0.701 ± 0.024	0.627 ± 0.031	0.609 ± 0.034	0.587 ± 0.033	0.559 ± 0.031	0.543 ± 0.03
100 µM, coculture fibroblast: HCFa	0.795 ± 0.013	0.71 ± 0.015	0.6638 ± 0.0043	0.6485 ± 0.0052	0.5615 ± 0.0017	0.534 ± 0.0059	0.4861 ± 0.0037	0.4464 ± 0.00067	0.4119 ± 0.00066
100 µM, coculture fibroblast: HCPF	0.8545 ± 0.0069	0.8407 ± 0.004	0.806 ± 0.011	0.769 ± 0.039	0.75 ± 0.021	0.726 ± 0.012	0.708 ± 0.017	0.688 ± 0.013	0.687 ± 0.022
100 µM, coculture fibroblast: HHSteC	0.859 ± 0.075	0.795 ± 0.11	0.773 ± 0.14	0.76 ± 0.16	0.673 ± 0.17	0.64 ± 0.18	0.596 ± 0.17	0.563 ± 0.18	0.521 ± 0.18
100 µM, coculture fibroblast: HMF	0.8254 ± 0.0052	0.83 ± 0.022	0.759 ± 0.029	0.681 ± 0.031	0.673 ± 0.053	0.644 ± 0.054	0.6 ± 0.061	0.571 ± 0.062	0.549 ± 0.057
100 µM, coculture fibroblast: HPFa	0.931 ± 0.028	0.844 ± 0.037	0.816 ± 0.049	0.737 ± 0.058	0.666 ± 0.053	0.637 ± 0.061	0.569 ± 0.059	0.523 ± 0.046	0.466 ± 0.04
100 µM, coculture fibroblast: HUF	0.8875 ± 0.001	0.8188 ± 0.0064	0.7687 ± 0.0032	0.7007 ± 0.0026	0.6559 ± 0.0037	0.624 ± 0.011	0.57 ± 0.011	0.54 ± 0.013	0.511 ± 0.015
100 µM, coculture fibroblast: Hs5	0.8615 ± 0.0022	0.85 ± 0.021	0.806 ± 0.018	0.77278 ± 0.00026	0.6932 ± 0.0067	0.6619 ± 0.0064	0.6152 ± 0.0012	0.5862 ± 0.0028	0.578 ± 0.013
100 µM, coculture fibroblast: Hs27A	0.771 ± 0.031	0.713 ± 0.062	0.671 ± 0.068	0.683 ± 0.087	0.565 ± 0.092	0.559 ± 0.099	0.51 ± 0.098	0.482 ± 0.099	0.446 ± 0.088
100 µM, coculture fibroblast: Hs343T	0.84 ± 0.022	0.857 ± 0.012	0.8044 ± 0.0049	0.745 ± 0.061	0.703 ± 0.016	0.668 ± 0.034	0.617 ± 0.036	0.589 ± 0.049	0.561 ± 0.063
100 µM, coculture fibroblast: WS1	0.845 ± 0.011	0.763 ± 0.025	0.737 ± 0.0011	0.668 ± 0.021	0.616 ± 0.015	0.578 ± 0.0076	0.533 ± 0.0084	0.4974 ± 0.00072	0.4736 ± 0.0032
